In article PMC10488267:
For at least one entry, the source does not settle the construct or the ends of the probe. Where cells or extracts were used, other partners may take part. Weaker means in comparison with the reference protein, sequence or condition of that experiment.

Chains of the proteins cited; added tags and fusions are not shown.
UniProt Q15717, whole entry: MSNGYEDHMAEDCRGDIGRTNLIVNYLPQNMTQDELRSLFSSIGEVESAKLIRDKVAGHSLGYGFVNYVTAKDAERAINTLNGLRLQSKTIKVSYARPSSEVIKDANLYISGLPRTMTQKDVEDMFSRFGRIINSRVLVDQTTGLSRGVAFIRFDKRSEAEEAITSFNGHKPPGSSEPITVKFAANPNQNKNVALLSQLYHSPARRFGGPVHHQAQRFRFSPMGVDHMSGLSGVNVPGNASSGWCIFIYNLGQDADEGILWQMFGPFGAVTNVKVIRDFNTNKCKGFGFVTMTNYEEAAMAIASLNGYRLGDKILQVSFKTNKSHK

Target: HuR (UniProt Q15717)
Assay: pull-down, western blot
Details: biotin-TEG at 5' end, RNA folded in 10 mM Tris pH 7, 10 mM MgCl2, 100 mM KCl, binding in Buffer D lysate (20 mM Tris pH 7.9, 20% glycerol, 0.1 M KCl, 0.2 mM EDTA, 0.5 mM DTT, RiboLock), protein in an extract, label: 5' biotin-TEG

**Q.** Does “AUUUUUAUUUU [HuR-binding ARE motif RNA oligo]” bind (100 µM STK018404 (dose-dependent decrease, Fig 4B))?
**A.** binds more weakly

**Q.** Does “AUUUUUAUUUU [HuR-binding ARE motif RNA oligo]” bind (100 µM STK217448 (no robust dose dependence))?
**A.** binds more weakly

**Q.** Does “AUUUUUAUUUU [HuR-binding ARE motif RNA oligo]” bind (100 µM Y044-6405 (no robust dose dependence))?
**A.** binds more weakly

**Q.** Does “AUUUUUAUUUU [HuR-binding ARE motif RNA oligo]” bind (no compound (positive control))?
**A.** binds
